Paper PMC10560259
No constants are given. Whether binding was seen depends on the method and setting. For some of these results: Binding seen in cells or lysates may run through a third protein. Some results given as binding are weak or reduced against the parent protein; the word gives no strength. One block for each substance: values may come before it.

Amino acid sequences for entries named in this document (tags omitted).
UniProt O94763: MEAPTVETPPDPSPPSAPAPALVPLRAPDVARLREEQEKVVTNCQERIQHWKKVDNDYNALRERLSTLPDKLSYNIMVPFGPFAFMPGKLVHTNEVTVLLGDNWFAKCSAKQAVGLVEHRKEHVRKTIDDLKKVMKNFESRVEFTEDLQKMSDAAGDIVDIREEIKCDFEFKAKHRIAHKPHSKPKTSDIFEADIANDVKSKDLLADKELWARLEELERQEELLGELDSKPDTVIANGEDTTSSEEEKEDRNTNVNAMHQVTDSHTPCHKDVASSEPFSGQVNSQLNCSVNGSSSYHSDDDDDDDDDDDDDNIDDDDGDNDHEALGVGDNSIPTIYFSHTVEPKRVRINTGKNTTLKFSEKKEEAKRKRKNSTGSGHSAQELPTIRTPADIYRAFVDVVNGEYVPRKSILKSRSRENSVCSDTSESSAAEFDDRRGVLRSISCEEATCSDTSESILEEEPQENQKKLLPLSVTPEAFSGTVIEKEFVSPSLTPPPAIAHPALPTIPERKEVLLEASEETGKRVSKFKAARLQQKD
UniProt Q00987: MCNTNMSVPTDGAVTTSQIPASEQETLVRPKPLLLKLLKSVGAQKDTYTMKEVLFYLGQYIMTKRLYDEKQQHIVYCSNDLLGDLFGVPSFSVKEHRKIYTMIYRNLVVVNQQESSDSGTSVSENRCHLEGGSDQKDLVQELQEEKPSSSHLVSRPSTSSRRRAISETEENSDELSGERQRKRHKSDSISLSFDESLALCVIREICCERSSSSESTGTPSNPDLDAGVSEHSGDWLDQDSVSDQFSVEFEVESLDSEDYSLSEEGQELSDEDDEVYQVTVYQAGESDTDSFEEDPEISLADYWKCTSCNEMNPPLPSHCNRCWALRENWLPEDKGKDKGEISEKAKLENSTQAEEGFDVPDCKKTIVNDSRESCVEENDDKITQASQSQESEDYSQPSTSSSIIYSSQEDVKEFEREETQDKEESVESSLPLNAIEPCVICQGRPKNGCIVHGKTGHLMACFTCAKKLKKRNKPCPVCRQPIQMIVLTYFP
UniProt Q13263: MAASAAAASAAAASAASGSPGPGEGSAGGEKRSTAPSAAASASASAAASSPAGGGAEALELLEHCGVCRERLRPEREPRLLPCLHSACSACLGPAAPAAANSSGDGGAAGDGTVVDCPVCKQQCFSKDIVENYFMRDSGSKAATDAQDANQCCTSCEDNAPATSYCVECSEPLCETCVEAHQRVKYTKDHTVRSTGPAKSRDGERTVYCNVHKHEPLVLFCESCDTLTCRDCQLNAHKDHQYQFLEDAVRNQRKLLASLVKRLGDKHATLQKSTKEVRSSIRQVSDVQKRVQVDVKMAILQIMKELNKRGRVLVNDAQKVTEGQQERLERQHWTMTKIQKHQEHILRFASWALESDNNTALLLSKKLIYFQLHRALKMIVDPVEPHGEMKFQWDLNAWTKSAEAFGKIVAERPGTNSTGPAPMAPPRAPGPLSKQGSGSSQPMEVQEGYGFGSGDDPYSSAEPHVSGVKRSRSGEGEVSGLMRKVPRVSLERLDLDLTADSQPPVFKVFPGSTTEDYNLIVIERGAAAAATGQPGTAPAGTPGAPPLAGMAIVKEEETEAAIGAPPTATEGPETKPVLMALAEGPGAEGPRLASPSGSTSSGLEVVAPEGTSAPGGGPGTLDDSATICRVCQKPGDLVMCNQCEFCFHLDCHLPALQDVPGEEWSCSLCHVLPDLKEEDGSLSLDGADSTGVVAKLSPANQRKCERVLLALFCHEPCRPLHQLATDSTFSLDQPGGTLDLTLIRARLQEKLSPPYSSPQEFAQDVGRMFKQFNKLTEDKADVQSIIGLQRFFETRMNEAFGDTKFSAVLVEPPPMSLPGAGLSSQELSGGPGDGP

Key:
GST-URI, purified = GST-URI, purified (UniProt O94763); assay: pull-down; GST pull-down in vitro with purified GST-URI and increasing doses of His-TRIM28; both purified
[1] = target: MDM2 in HEK293T cells co-transfected with the indicated plasmids (Fig. 5j) (UniProt Q00987); assay: co-IP; HEK293T cells co-transfected with the indicated plasmids for 48 h, anti-Flag immunoprecipitation; with or without overexpression of URI
[2] = target: unconventional prefoldin RPB5 interactor (URI), His-tagged, expressed in HEK293T (UniProt O94763); assay: co-IP; HEK293T cells transfected with His-URI plasmid, immunoprecipitated with anti-His antibody, Western blot
[3] = target: MDM2, endogenous, precipitated with anti-MDM2 antibody (human (endogenous; all cell lines of the paper are human)) (UniProt Q00987); assay: co-IP; anti-MDM2 immunoprecipitation of cell lysates, cells with or without URI depletion, immunoblotting

binding (GST-URI, purified): binds
Substance: His-TRIM28, purified recombinant (from UniProt Q13263 1-835)

binding [1]: binds
Substance: TRIM28 in HEK293T cells co-transfected with the indicated plasmids (Fig. 5j) (from UniProt Q13263 1-835)

binding [2]: binds
Substance: TRIM28, endogenous in HEK293T (from UniProt Q13263 1-835)

binding [3]: binds
Substance: TRIM28, endogenous, in the anti-MDM2 immunoprecipitate (from UniProt Q13263 1-835)
